Test results from ChEMBL document CHEMBL5665443, “Enzyme Inhibitor Single Concentration assay results for EUbOPEN Chemogenomics Library” (2024).

By UniProt entry, the sequences of proteins in these tests, tags left out. Where a name states a change or a piece, a line headed by the entry shows the natural chain unless it says otherwise.
UniProt O95243: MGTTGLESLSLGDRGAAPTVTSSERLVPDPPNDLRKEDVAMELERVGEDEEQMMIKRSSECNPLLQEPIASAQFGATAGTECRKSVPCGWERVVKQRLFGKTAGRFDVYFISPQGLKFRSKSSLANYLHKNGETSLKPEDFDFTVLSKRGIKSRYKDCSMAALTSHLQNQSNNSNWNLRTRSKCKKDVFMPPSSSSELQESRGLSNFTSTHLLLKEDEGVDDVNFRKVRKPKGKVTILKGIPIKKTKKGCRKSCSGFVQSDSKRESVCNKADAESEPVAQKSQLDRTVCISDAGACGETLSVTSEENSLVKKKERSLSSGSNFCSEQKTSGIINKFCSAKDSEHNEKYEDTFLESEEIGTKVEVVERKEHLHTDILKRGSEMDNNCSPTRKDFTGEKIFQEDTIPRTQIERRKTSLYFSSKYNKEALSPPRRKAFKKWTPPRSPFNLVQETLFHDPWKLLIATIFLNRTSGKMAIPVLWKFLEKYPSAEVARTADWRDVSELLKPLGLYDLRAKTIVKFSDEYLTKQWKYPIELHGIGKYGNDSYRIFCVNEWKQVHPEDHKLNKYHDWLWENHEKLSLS
UniProt Q96FI4, whole entry: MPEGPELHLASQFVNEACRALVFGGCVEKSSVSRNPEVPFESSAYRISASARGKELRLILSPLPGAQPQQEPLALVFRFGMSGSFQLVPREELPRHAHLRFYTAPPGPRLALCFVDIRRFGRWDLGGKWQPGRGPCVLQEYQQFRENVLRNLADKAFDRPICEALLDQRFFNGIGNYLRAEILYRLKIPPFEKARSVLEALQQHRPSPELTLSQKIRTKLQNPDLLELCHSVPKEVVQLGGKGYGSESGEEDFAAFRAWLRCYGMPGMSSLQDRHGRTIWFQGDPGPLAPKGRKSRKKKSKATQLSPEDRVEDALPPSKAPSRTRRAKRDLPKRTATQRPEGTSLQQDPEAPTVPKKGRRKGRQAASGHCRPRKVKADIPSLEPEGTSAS
UniProt O15527, whole entry: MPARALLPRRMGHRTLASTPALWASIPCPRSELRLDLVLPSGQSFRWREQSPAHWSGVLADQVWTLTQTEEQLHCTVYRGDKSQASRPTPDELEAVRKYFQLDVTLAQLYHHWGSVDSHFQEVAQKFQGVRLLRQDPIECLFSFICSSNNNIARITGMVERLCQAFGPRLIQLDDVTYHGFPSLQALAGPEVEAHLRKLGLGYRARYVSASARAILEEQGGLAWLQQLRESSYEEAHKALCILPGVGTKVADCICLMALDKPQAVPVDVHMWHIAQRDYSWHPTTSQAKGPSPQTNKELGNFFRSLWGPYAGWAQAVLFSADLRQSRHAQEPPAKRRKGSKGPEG
UniProt Q13569: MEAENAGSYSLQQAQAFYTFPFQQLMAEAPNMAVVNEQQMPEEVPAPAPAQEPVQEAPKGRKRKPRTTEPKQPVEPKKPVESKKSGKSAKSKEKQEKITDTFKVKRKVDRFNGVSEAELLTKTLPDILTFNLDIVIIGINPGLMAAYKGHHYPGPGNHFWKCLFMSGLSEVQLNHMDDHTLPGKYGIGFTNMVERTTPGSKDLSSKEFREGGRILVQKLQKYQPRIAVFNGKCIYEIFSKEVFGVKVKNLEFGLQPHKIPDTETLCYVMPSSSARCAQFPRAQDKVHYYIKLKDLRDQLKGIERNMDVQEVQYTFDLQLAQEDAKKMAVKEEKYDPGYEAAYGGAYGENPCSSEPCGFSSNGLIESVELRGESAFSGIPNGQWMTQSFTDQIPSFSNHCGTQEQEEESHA
UniProt P13051, whole entry: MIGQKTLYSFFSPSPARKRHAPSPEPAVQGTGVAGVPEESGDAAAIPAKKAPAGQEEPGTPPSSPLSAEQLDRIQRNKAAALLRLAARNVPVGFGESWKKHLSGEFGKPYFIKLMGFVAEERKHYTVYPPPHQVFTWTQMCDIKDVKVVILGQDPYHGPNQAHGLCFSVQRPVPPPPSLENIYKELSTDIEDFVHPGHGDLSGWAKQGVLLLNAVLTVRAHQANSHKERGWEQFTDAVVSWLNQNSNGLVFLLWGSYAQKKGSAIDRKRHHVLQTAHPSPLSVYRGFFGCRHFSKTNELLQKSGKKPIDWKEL

How the values were obtained:
Conditions in all cases: Compound Concentration 10.0 uM, Hit No
[1] = target: Methyl-CpG-binding domain protein 4 (Homo sapiens) (UniProt O95243);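 note: MBD4 activity read as fluorescence at 594 nm from cleavage and release of a quenched duplex DNA oligonucleotide, with APE1 coupled to incise the strand and raise turnover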
[2] = target: Endonuclease 8-like 1 (Homo sapiens) (UniProt Q96FI4);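 note: fluorescence at 594 nm from quenched duplex DNA oligonucleotides released by NEIL1 cleavage and strand separation, reported as reduction of this enzyme activity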
[3] = target: T1, Endonuclease 8-like 2 (Homo sapiens) (UniProt Q969S2);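 note: fluorescence at 594 nm reports NEIL2 cutting and release of a quenched double-stranded DNA oligo substrate, reduced signal read as inhibition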
T1 sequence (whole entry): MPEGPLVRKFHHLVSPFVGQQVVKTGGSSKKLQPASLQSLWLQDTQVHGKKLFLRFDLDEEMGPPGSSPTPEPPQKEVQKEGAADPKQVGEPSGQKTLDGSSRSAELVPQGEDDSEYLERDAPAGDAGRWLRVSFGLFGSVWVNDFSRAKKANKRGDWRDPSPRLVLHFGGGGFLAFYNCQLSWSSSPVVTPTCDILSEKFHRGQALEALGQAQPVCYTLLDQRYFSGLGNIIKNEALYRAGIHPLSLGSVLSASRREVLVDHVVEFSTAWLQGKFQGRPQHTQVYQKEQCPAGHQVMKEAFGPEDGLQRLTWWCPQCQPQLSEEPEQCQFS

[4] = target: N-glycosylase/DNA lyase (Homo sapiens) (UniProt O15527);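 note: OGG1 cleavage of a quenched duplex DNA oligonucleotide, coupled to APE1 for strand incision, read as fluorescence at 594 nm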
[5] = target: T2, Single-strand selective monofunctional uracil DNA glycosylase (Homo sapiens) (UniProt Q53HV7);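 note: enzymatic SMUG1 assay coupled with APE1, reading fluorescence at 594 nm released when a quenched double-stranded DNA oligonucleotide substrate is cleaved and separated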
T2 sequence (whole entry): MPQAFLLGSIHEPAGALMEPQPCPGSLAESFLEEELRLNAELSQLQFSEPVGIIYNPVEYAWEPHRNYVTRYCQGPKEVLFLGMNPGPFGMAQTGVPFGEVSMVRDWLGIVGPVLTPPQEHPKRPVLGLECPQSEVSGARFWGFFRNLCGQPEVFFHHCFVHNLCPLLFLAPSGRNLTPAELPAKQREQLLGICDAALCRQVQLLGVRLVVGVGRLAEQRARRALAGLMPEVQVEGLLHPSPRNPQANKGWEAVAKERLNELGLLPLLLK

[6] = target: G/T mismatch-specific thymine DNA glycosylase (Homo sapiens) (UniProt Q13569);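 note: human TDG cleavage of quenched duplex DNA oligonucleotides coupled to APE1, strand release read as fluorescence at 594 nm, inhibition of TDG activity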
[7] = target: Uracil-DNA glycosylase (Homo sapiens) (UniProt P13051);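 note: UNG excision on a quenched double-stranded DNA oligo probe, with APE1 added for strand incision and turnover, read as fluorescence at 594 nm as strands separate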

inhibition [1]: -6.09% | inhibition [2]: 4.89% | inhibition [3]: 8.31% | inhibition [4]: -5.7% | inhibition [5]: -1.22% | inhibition [6]: 43.4% | inhibition [7]: -0.444%
Structure (SMILES): C[C@@H]1C[C@H](N)C[C@H](c2ccncc2NC(=O)c2ccc(F)c(-c3c(F)cccc3F)n2)C1
